Laboratory results from publication doi:10.1101/2023.12.22.573053.
These are yes or no findings as the source states them, for the method shown. Binding seen in cells or lysates may run through a third protein. A yes stands for co-enrichment or nearness to the bait. Other partners may have been found. Sequences can lack the tags named with a protein.

T1: SNRNP35 (ProteinA-TEV-3×HA-tagged) (human) (UniProt Q16560)
T1 sequence: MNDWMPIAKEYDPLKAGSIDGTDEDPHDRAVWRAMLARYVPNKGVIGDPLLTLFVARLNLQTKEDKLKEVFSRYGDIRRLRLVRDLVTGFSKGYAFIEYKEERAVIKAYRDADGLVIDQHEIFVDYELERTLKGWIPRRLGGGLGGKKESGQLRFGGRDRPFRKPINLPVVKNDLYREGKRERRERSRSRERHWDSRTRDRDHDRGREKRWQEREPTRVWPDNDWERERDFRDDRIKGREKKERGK

B1: RNPC3 (protein, UniProt Q96LT9 1-517)
chain: MAAPEQPLAISRGCTSSSSLSPPRGDRTLLVRHLPAELTAEEKEDLLKYFGAQSVRVLSDKGRLKHTAFATFPNEKAAIKALTRLHQLKLLGHTLVVEFAKEQDRVHSPCPTSGSEKKKRSDDPVEDDKEKKELGYLTVENGIAPNHGLTFPLNSCLKYMYPPPSSTILANIVNALASVPKFYVQVLHLMNKMNLPTPFGPITARPPMYEDYMPLHAPLPPTSPQPPEEPPLPDEDEELSSEESEYESTDDEDRQRMNKLMELANLQPKRPKTIKQRHVRKKRKIKDMLNTPLCPSHSSLHPVLLPSDVFDQPQPVGNKRIEFHISTDMPAAFKKDLEKEQNCEEKNHDLPATEVDASNIGFGKIFPKPNLDITEEIKEDSDEMPSECISRRELEKGRISREEMETLSVFRSYEPGEPNCRIYVKNLAKHVQEKDLKYIFGRYVDFSSETQRIMFDIRLMKEGRMKGQAFIGLPNEKAAAKALKEANGYVLFGKPMVVQFARSARPKQDPKEGKRKC
B2: SNRNP48 (protein, UniProt Q6IEG0 1-339)
chain: MEGEPPPVEERRRLQEELNEFVESGCRTLEEVTASLGWDLDSLDPGEEEAAEDEVVICPYDSNHHMPKSSLAKHMASCRLRKMGYTKEEEDEMYNPEFFYENVKIPSITLNKDSQFQIIKQARTAVGKDSDCYNQRIYSSLPVEVPLNHKRFVCDLTQADRLALYDFVVEETKKKRSDSQIIENDSDLFVDLAAKINQDNSRKSPKSYLEILAEVRDYKRRRQSYRAKNVHITKKSYTEVIRDVINVHMEELSNHWQEEQEKAEDDAEKNEERRSASVDSRQSGGSYLDAECSRHRRDRSRSPHKRKRNKDKDKNCESRRRKERDGERHHSHKRRKQKI
B3: SNRNP25 (protein, UniProt Q9BV90 1-132)
chain: MDVFQEGLAMVVQDPLLCDLPIQVTLEEVNSQIALEYGQAMTVRVCKMDGEVMPVVVVQSATVLDLKKAIQRYVQLKQEREGGIQHISWSYVWRTYHLTSAGEKLTEDRKKLRDYGIRNRDEVSFIKKLRQK
B4: PDCD7 (protein, UniProt Q8N8D1 1-485)
chain: MALPPFFGQGRPGPPPPQPPPPAPFGCPPPPLPSPAFPPPLPQRPGPFPGASAPFLQPPLALQPRASAEASRGGGGAGAFYPVPPPPLPPPPPQCRPFPGTDAGERPRPPPPGPGPPWSPRWPEAPPPPADVLGDAALQRLRDRQWLEAVFGTPRRAGCPVPQRTHAGPSLGEVRARLLRALRLVRRLRGLSQALREAEADGAAWVLLYSQTAPLRAELAERLQPLTQAAYVGEARRRLERVRRRRLRLRERAREREAEREAEAARAVEREQEIDRWRVKCVQEVEEKKREQELKAAADGVLSEVRKKQADTKRMVDILRALEKLRKLRKEAAARKGVCPPASADETFTHHLQRLRKLIKKRSELYEAEERALRVMLEGEQEEERKRELEKKQRKEKEKILLQKREIESKLFGDPDEFPLAHLLEPFRQYYLQAEHSLPALIQIRHDWDQYLVPSDHPKGNFVPQGWVLPPLPSNDIWATAVKLH
B5: ZMAT5 (protein, UniProt Q9UDW3 1-170)
chain: MGKRYFCDYCDRSFQDNLHNRKKHLNGLQHLKAKKVWYDMFRDAAAILLDEQNKRPCRKFLLTGQCDFGSNCRFSHMSERDLQELSIQVEEERRAREWLLDAPELPEGHLEDWLEKRAKRLSSAPSSRAEPIRTTVFQYPVGWPPVQELPPSLRAPPPGGWPLQPRVQWG

biological target: T1, SNRNP35 (ProteinA-TEV-3×HA-tagged) (human); assay: affinity purification with mass spectrometry

binding	Binder
binds	B1
binds	B2
binds	B3
binds	B4
binds	B5
